# Experimental data reported in patent publication US6649621B2, “Prevention or reversal of sensorineural hearing loss (SNHL) through biologic mechanisms” (The United States of America as represented by the …, priority 1997, dated 2003).
# At least one compound was matched to its structure with a doubt left.
# System: idiopathic sensorineural hearing loss
# Experiment: Treatment of individuals with sudden idiopathic sensorineural hearing loss (oral conventional therapy, then topical round window microcatheter)
# Assay type: in vivo, human
# Conditions: one patient each
# From the text: FIG. 7 is a bar graph comparing the speech reception threshold values of an individual who suffered an idiopathic sensorineural hearing loss before and after administration of a topical rescue agent.
# FIG. 8 is a bar graph comparing the word discrimination scores of an individual who suffered an idiopathic sensorineural hearing loss before and after administration of a topical rescue agent.
# FIG. 9 is a bar graph comparing the speech reception threshold values of another individual who suffered an idiopathic sensorineural hearing loss before and after administration of a topical rescue agent.
# FIG. 10 is a bar graph comparing the word discrimination scores of another individual who suffered an idiopathic sensorineural hearing loss before and after administration of a topical rescue agent.
# A Army Sergeant noted the sudden onset of a severe hearing loss and tinnitus in their left ear. They were initially given one week of conventional therapy with oral prednisone and a trial of close observation. They had no response to this treatment regimen and two weeks after experiencing the hearing loss they were treated with topical methylprednisolone. The topical methylprednisolone was administered in a round window microcatheter (IntraEar Corporation, Denver, Colo.) via a method developed by our group. The methylprednisolone was given in a concentration of 125 mg/ml. The catheter was pre-loaded with 0.125 ml of this compound after the catheter was secure in the round window niche. The catheter was then attached to a battery operated pump (Disetronics, Inc) which pumped the methylprednisolone into the catheter at 10 ul/hour for 14 days. […] Since this individual had failed conventional therapy, the outlook for recovery without the new treatment was less than 15%.
# A Ophthalmologist noted the sudden onset of a severe hearing loss and tinnitus in their right ear. They were initially given three weeks of conventional therapy with oral prednisone for 10 days and a trial of close observation. […]
# [1] = topical, round window microcatheter, 125 mg/ml, 10 ul/hour for 14 days
compound,measurement,setting,value
C[C@H]1C[C@@H]2[C@H]([C@@H](O)C[C@@]3(C)[C@H]2CC[C@]3(O)C(=O)CO)[C@@]2(C)C=CC(=O)C=C12 [methylprednisolone],tinnitus,after topical treatment,completely resolved
same,speech reception threshold,[1],complete recovery
same,word discrimination ability,[1],complete recovery
